Results deposited as PubChem BioAssay AID652272 (Drosophila RNAi Screening Center, 2013)

- Purpose: 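Genome-wide knock-down search for components of Hedgehog signalling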 (primary screen)
- Cells: Drosophila clone 8 (Cl8) cells
- Reagents: long dsRNA against Drosophila genes
- Read-out: 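Plate reader light from a firefly reporter under a ptc promoter fragment that responds to Hedgehog, with Renilla light as transfection reference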
- Reading the numbers: firefly Hh reporter signal: higher = more ptc reporter light; Renilla reference signal: higher = more Renilla control light
- Active means: 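Called a hit if the two-replicate mean z-score lies below -2 or above +3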
- Calls: active = hit: reporter lowered or raised; inactive = not a hit
The screen tested about 21,000 reagents; below is an unselected part of those with a known target gene and a result. Over the whole deposit, 503 (2.4%) got an active call. 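Raw plate light values, not normalised; calls rest on replicate z-scores that were not deposited; hits include reporter decreases as well as increases.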 A plus sign joins genes that one reagent is predicted to hit. Not given: the amount of reagent, the time to read-out.

| gene | DRSC id | firefly Hh reporter signal, replicate 1 | firefly Hh reporter signal, replicate 2 | firefly Hh reporter signal, replicate 3 | Renilla reference signal, replicate 1 | Renilla reference signal, replicate 2 | call |
| --- | --- | --- | --- | --- | --- | --- | --- |
| CG2616 (GeneID 40915) | DRSC15440 | 57684 | 80520 | – | 2256 | 2299 | inactive |
| CG10950 (GeneID 36942) | DRSC06020 | 69216 | 50982 | – | 1824 | 4162 | inactive |
| CG9338 (GeneID 35357) | DRSC03213 | 96292 | 82161 | – | 3779 | 3511 | inactive |
| lncRNA:CR43409 (GeneID 12798155) | DRSC01164 | 6.71e5 | 2.69e5 | – | 32033 | 10597 | inactive |
| Faa (GeneID 45577) | DRSC08451 | 1.04e5 | 67789 | – | 4550 | 2953 | inactive |
| Fam92 (GeneID 34654) | DRSC02952 | 80634 | 74419 | – | 4296 | 3049 | inactive |
| CG7443 (GeneID 40992) | DRSC16244 | 1.01e5 | 1.76e5 | – | 4346 | 4744 | inactive |
| CG32055 (GeneID 39188) | DRSC10666 | 87553 | 78344 | – | 4161 | 3113 | inactive |
| CG8152 (GeneID 36696) | DRSC07083 | 84912 | 65192 | – | 1907 | 5047 | inactive |
| atos (GeneID 36243) | DRSC07318 | 1.17e5 | 47689 | – | 2807 | 3569 | inactive |
| CG31323 (GeneID 318682) | DRSC14901 | 6.42e5 | 1.66e5 | – | 30933 | 5330 | inactive |
| CG10011 (GeneID 43387) | DRSC14174 | 77858 | 78743 | – | 1840 | 2049 | inactive |
| PICK1 (GeneID 34677) | DRSC01268 | 6.05e5 | 2.32e5 | – | 29284 | 9648 | inactive |
| PICK1 (GeneID 34677) | DRSC02936 | 1.34e5 | 77248 | – | 3767 | 6978 | inactive |
| Grip128 (GeneID 32478) | DRSC20167 | 1.28e5 | 88504 | – | 3014 | 2082 | inactive |
| PNKP (GeneID 40994) | DRSC16512 | 71868 | 1.36e5 | – | 2561 | 4045 | inactive |
| Adss (GeneID 42466) | DRSC14162 | 1.51e5 | 71914 | – | 5620 | 2706 | inactive |
| Tsp42Ed (GeneID 35613) | DRSC05940 | 1.04e5 | 54600 | – | 2515 | 4754 | inactive |
| CG5280 (GeneID 39033) | DRSC10498 | 63509 | 99876 | – | 5868 | 6413 | inactive |
| CG15458 (GeneID 50124) | DRSC20529 | 58778 | 2.18e5 | – | 1424 | 9539 | inactive |
| CG31867 (GeneID 261614) | DRSC03338 | 1.06e5 | 57548 | – | 3357 | 4995 | inactive |
| Dhc98D (GeneID 43379) | DRSC16645 | 96032 | 1.01e5 | – | 2825 | 3696 | inactive |
| alphaKap4 (GeneID 38675) | DRSC09823 | 48000 | 42338 | – | 2850 | 3590 | inactive |
| CG1924 (GeneID 32180) | DRSC19823 | 1.00e5 | 2.34e5 | – | 2741 | 10971 | inactive |
| CG32073 (GeneID 326191) | DRSC09087 | 1.25e5 | 1.99e5 | – | 3905 | 8848 | inactive |
| CG32073 (GeneID 326191) | DRSC09894 | 46948 | 60106 | 68439 | 6321 | 5824 | inactive |
| CG14756 (GeneID 35798) | DRSC06491 | 96786 | 37789 | – | 2477 | 3467 | inactive |
| ND-49L (GeneID 43073) | DRSC14437 | 3.67e5 | 64589 | – | 21393 | 1856 | inactive |
| BaraB (GeneID 35894) | DRSC06420 | 1.21e5 | 80745 | – | 2835 | 6274 | inactive |
| Arp3 (GeneID 38898) | DRSC09669 | 1.60e5 | 83687 | – | 7408 | 3846 | inactive |
| CG14971 (GeneID 38429) | DRSC08430 | 81843 | 75933 | – | 3468 | 2818 | inactive |
| Bicra (GeneID 43435) | DRSC14417 | 64299 | 44528 | – | 3416 | 1472 | inactive |
| CG8060 (GeneID 36824) | DRSC07064 | 1.31e5 | 82583 | – | 6342 | 3818 | inactive |
| CG8299 (GeneID 36751) | DRSC07139 | 81372 | 52525 | – | 1968 | 3458 | inactive |
| raskol (GeneID 32754) | DRSC19202 | 4.19e5 | 2.47e5 | – | 26707 | 5797 | inactive |
| raskol (GeneID 32754) | DRSC19731 | 1.62e5 | 3.29e5 | – | 5717 | 12529 | inactive |
| raskol (GeneID 32754) | DRSC19964 | 98445 | 2.40e5 | – | 3495 | 9189 | inactive |
| raskol (GeneID 32754) | DRSC19967 | 32620 | 32584 | – | 1971 | 1381 | inactive |
| CG32706 + CG6999 | DRSC18412 | 92086 | 4.73e5 | – | 3216 | 16166 | inactive |
| CG4593 (GeneID 31649) | DRSC18374 | 54477 | 1.09e5 | – | 2626 | 5571 | inactive |
| CG6675 (GeneID 35439) | DRSC03735 | 81976 | 1.04e5 | – | 2224 | 7200 | inactive |
| Acp53Ea (GeneID 36874) | DRSC05916 | 91853 | 51880 | – | 2428 | 2844 | inactive |
| Spn43Aa (GeneID 45041) | DRSC06117 | 1.35e5 | 1.12e5 | – | 5164 | 4600 | inactive |
| tut (GeneID 317996) | DRSC08909 | 1.20e5 | 2.23e5 | – | 2969 | 9371 | inactive |
| st (GeneID 39836) | DRSC11399 | 74790 | 36231 | – | 3117 | 1628 | inactive |
| Gr23a (GeneID 33453) | DRSC00410 | 1.14e5 | 77424 | – | 2935 | 1824 | inactive |
| spn-F (GeneID 43700) | DRSC14475 | 38049 | 47080 | – | 1066 | 1681 | inactive |
| Rad60 (GeneID 42748) | DRSC15580 | 5.17e5 | 1.05e5 | – | 25574 | 3512 | inactive |
| fwd (GeneID 45374) | DRSC08580 | 51592 | 46880 | – | 3095 | 2372 | inactive |
| CG2691 (GeneID 32320) | DRSC19866 | 80284 | 65850 | – | 1626 | 1008 | inactive |
| RabGGTa (GeneID 40617) | DRSC12189 | 1.74e5 | 1.15e5 | – | 5856 | 4320 | inactive |
| Nrt (GeneID 39873) | DRSC11237 | 76865 | 54913 | – | 3018 | 2408 | inactive |
| sit (GeneID 42658) | DRSC15760 | 4.14e5 | 1.25e5 | – | 24294 | 3421 | inactive |
| CG16815 (GeneID 34725) | DRSC02521 | 1.69e5 | 51641 | – | 3832 | 3905 | inactive |
| Had2 (GeneID 36624) | DRSC05971 | 1.26e5 | 75852 | – | 5552 | 3093 | inactive |
| CG12012 (GeneID 38422) | DRSC08220 | 74437 | 52861 | – | 2324 | 3916 | inactive |
| CG4459 (GeneID 42377) | DRSC15582 | 8.45e5 | 1.68e5 | – | 44499 | 4450 | inactive |

Reformatted: entries from further up
RabGGTa (GeneID 40617) [DRSC12189]
- firefly Hh reporter signal, replicate 1: 1.74e5
- firefly Hh reporter signal, replicate 2: 1.15e5
- Renilla reference signal, replicate 1: 5856
- Renilla reference signal, replicate 2: 4320
- call: inactive

Nrt (GeneID 39873) [DRSC11237]
- firefly Hh reporter signal, replicate 1: 76865
- firefly Hh reporter signal, replicate 2: 54913
- Renilla reference signal, replicate 1: 3018
- Renilla reference signal, replicate 2: 2408
- call: inactive

sit (GeneID 42658) [DRSC15760]
- firefly Hh reporter signal, replicate 1: 4.14e5
- firefly Hh reporter signal, replicate 2: 1.25e5
- Renilla reference signal, replicate 1: 24294
- Renilla reference signal, replicate 2: 3421
- call: inactive
